# According to PubChem BioAssay AID2685 (National Center for Advancing Translational Sciences (NCATS), 2010):
# The list shows a part of the results. Shown are side measurements of this screen, not its main read-out; they come without a call. Compounds called inactive in the main read-out are mostly missing here. The note in brackets gives the kind of curve behind each potency; many fits are weak.
# Test: qHTS Assay for Lipid Storage Modulators in Drosophila S3 Cells;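 as to cell number change: cells counted by Cell Tracker Red CMTPX staining in the red channel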
# Details: BODIPY lipid droplet fluorescence, 18-24 h; for cell number change: measured here: cell count max response, cells fed with added oleic acid
# Outline: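 Drosophila S3 cells loaded with oleic acid (400 uM, as added) and compounds at several concentrations; lipid droplets imaged by 488-nm laser-scanning cytometry, 500–530 nm intensity and object ratio to cell channel. Percent activity normalized to 20 uM Triacsin C.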
# [1] = measured here: lipid fluorescence (Fed channel) AC50, cells fed with added oleic acid
# [2] = measured here: cell number channel AC50, cells fed with added oleic acid
Compound,cell number change,AC50 [1],AC50 [2]
Cc1c(-c2ccnc3cc(C(=O)O)nn23)cnn1C,24.3%,"29.1 µM [rising, single point]",
COc1cccc(/C=N/NC(=O)c2[nH]c(C)c(C(=O)N/N=C/c3cccc(OC)c3O)c2C)c1O,-30.2%,"32.6 µM [falling, single point]","29.1 µM [falling, single point]"
O=S(=O)(NC1CCN(Cc2ccccc2)CC1)c1cccc2cccnc12,138%,,"7.31 µM [falling, partial curve, poor fit]"
COc1ccccc1C(=O)Nc1ccc(S(=O)(=O)N2CCCCC2)cc1,18.4%,,
CN(C)CCNC(=O)C1CCCNC1=O (stereo unspecified),-17.9%,,
CC(C)NS(=O)(=O)c1ccc(CCC(=O)N2CCCCC2)cc1,-38.8%,,"32.6 µM [falling, single point]"
Cc1ccccc1Cn1nc(C)c(NC(=O)/C=C/c2cnn(C)c2C)c1C,38.1%,"0.517 µM [rising, full curve, poor fit]","7.31 µM [rising, partial curve]"
O=C(NCC(c1ccco1)N1CCc2ccccc2C1)c1ccc(Br)cc1 (stereo unspecified),34.5%,"29.1 µM [rising, single point]","29.1 µM [rising, single point]"
Cc1nc(SCCC(=O)O)c2cc(-c3ccccc3)sc2n1,-2.56%,"29.1 µM [rising, single point]",
O=C1c2cccc3c(N4CCCCC4)ccc(c23)C(=O)N1c1ccccc1O,-96.6%,,"18.4 µM [falling, partial curve]"
Cc1nn(-c2ccccc2)c(C)c1/C=N/Nc1nc2ccccc2[nH]1,-65.1%,"29.1 µM [falling, partial curve, poor fit]","32.6 µM [falling, single point]"
O=S(=O)(Nc1nc2ccccc2nc1NCc1ccco1)c1ccc(Cl)cc1,,"5.8 µM [rising, single point]",
CCCN(CCC)S(=O)(=O)c1ccc(Cl)c([N+](=O)[O-])c1,-24.3%,"5.17 µM [falling, single point]",
CCCCC(NC(=O)Cc1c(C)c2cc3c(-c4ccccc4)coc3c(C)c2oc1=O)C(=O)O (stereo unspecified),-23.4%,"2.06 µM [rising, partial curve]",
COC(=O)c1c(NC(=O)C(Cl)Cl)sc2c1C(C(=O)OC)CC2 (stereo unspecified),-17%,"29.1 µM [falling, single point]",
CCOc1ccc(-c2c(C(=O)N/N=C/c3ccccc3)nnn2-c2nonc2N)cc1,18.4%,"0.00461 µM [rising, full curve, poor fit]","0.00517 µM [rising, full curve, poor fit]"
CC(=O)N1CCOc2ccc(S(=O)(=O)N3CCC(C(=O)Nc4ccc(C)cc4)CC3)cc21,-25.5%,,
COCCCNC(=S)Nc1ccc(C)cc1[N+](=O)[O-],15.9%,,
Cc1ccc2nc(-c3cccnc3)cc(C(=O)Nc3ccccc3[N+](=O)[O-])c2c1,-46.8%,,"7.08 µM [falling, partial curve]"

Compound,cell number change,AC50 [1],AC50 [2]
CCC(C(=O)NCCc1ccccc1OC)n1nc(C)c2c(C)n(-c3ccccc3)nc2c1=O (stereo unspecified),-5.32%,,"0.0058 µM [rising, full curve, poor fit]"
Cc1onc(-c2ccccc2)c1-c1nc2ccccc2c(=O)o1,,"6.51 µM [falling, single point]","0.82 µM [falling, full curve, poor fit]"
CC(=O)N1CCOc2ccc(S(=O)(=O)N3CCCC(C)C3)cc21 (stereo unspecified),,"29.1 µM [falling, single point]",
CC1CCN(C(=O)Cn2cnc3c2c(=O)n(C)c(=O)n3C)c2ccccc2S1 (stereo unspecified),11.1%,"29.1 µM [falling, single point]",
O=C(O)C1CCC(=O)N1Cc1ccc(F)cc1 (stereo unspecified),20.6%,"29.1 µM [falling, single point]",
Cc1cccc(-c2nnc3n2N=C(c2ccccc2Br)CS3)c1,-19.9%,"9.2 µM [falling, partial curve]",
CCC(C(=O)NCCc1ccccc1)c1ccccc1 (stereo unspecified),22%,"29.1 µM [rising, single point]",
CCc1ccc2c(c1)[C@]1(C(=O)N2)[C@@H]2C(=O)N(Cc3ccccc3)C(=O)[C@@H]2[C@@H]2CCCN21,-0.419%,,
CCC(C)(C)NC(=O)C1CCN(S(=O)(=O)c2cccs2)CC1,22.2%,,
COC(=O)C1=C(C)NC(C)=C(C(=O)OC)C1/C=C/c1ccccc1,137%,"29.1 µM [rising, single point]","29.1 µM [rising, single point]"
O=C(NC12CC3CC(CC(C3)C1)C2)N1CCCC(CO)C1 (stereo unspecified),-58.1%,,"16.4 µM [falling, single point]"
CCc1nnc(NC(=O)COc2ccc3ccccc3c2)s1,-16.2%,,
Cc1ccc(C)c2sc(N)nc12,11.3%,,
Oc1c(Br)cc(Br)cc1CNc1ccc(F)cc1,9.18%,,"2.06 µM [falling, partial curve]"
COc1cc(/C=C2\SC(=S)N(NC(=O)c3ccc(O)cc3)C2=O)ccc1O,-93%,"18.4 µM [falling, partial curve]","25.9 µM [falling, partial curve, poor fit]"
N#CC1=C(C=Nc2ccccc2O)CCC1,-46.8%,"3.66 µM [falling, full curve]","23.1 µM [falling, single point]"
CN1CCN(CC(=O)NC2CCCCC2)CC1,-59.7%,"29.1 µM [falling, single point]","18.4 µM [falling, partial curve]"
CC1Cc2nc(SCC(=O)N3CCN(c4ccccc4)CC3)n(CCc3ccccc3)c(=O)c2S1 (stereo unspecified),2.02%,"0.651 µM [rising, single point]","1.84 µM [rising, single point]"
COc1ccc(OCc2nnc(SCC(=O)N3c4ccccc4Sc4ccc(Cl)cc43)o2)cc1,-12%,"25.9 µM [falling, partial curve]",

# Entries of single compounds, looked up by structure.
# `Cc1onc(-c2ccccc2)c1-c1nc2ccccc2c(=O)o1` is listed with AC50 [1]: 6.51 µM [falling, single point]; AC50 [2]: 0.82 µM [falling, full curve, poor fit]
# `Cc1cccc(-c2nnc3n2N=C(c2ccccc2Br)CS3)c1` is listed with cell number change: -19.9%; AC50 [1]: 9.2 µM [falling, partial curve]
# `CC(=O)N1CCOc2ccc(S(=O)(=O)N3CCCC(C)C3)cc21` (stereo unspecified) is listed with AC50 [1]: 29.1 µM [falling, single point]
